In article PMC8408604:
These are yes or no findings as the source states them, for the method shown. In cells and extracts the contact can be indirect. Some binding calls cover weakened binding; strength is not graded here. Tags and fused reporters may be left off the sequences shown.

Biological target: T1, TAP-PSF-1 (PSF-1 subunit of GINS with the tandem affinity purification tag) (C. elegans) (UniProt Q22019)
T1 sequence: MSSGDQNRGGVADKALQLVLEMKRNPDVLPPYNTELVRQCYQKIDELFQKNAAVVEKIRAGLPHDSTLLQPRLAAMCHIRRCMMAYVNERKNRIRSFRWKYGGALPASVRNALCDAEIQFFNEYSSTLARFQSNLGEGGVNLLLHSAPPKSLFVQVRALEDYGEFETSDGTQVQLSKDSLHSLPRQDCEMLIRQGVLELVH
Assay: co-IP; Figs 5 and EV4C: extracts of embryos of TAP-psf-1 worms (npl-4 RNAi; with or without ctf-4 or clsp-1 RNAi, tipn-1 RNAi, ctf-4∆), nuclease-digested; TAP-PSF-1 on IgG-coupled magnetic beads, released with TEV protease; immunoblot

- binding: binds
B1: MCM-2, endogenous in C. elegans embryos (protein, UniProt Q9XXI9 1-881)
chain: MADRANNDDDVDRQPLPIADDADDDVDGIDEMFNNEDEDPEDEEGENLFGDDMERDYREQPELDQYSESGMDDASDVGSLSVSARRAAEREMAQRDQLLDDDALMYEDGDSEEVDTRRRGRGRRGRGDAADDDSVPMEEEDIPVDILENIRGRTIRDHVSDEAVAKEIERRFKNFLRSFHEPGNKQTKYIQMIKSMAADNRESLEVSFTDLSDDNGEQNISYFLPEAPNEMLAIMDRAATEVVMNMYPFYSRVCNEIKVRISQLPVEEDIRMLRQVHLNMLIRTAGVVTIASGILPQLAVVKYDCVACGYLLGPFVQQNDEEVRPTICPSCQGKGPFELNVENTVYHNYQRITMQESPNKVAAGRLPRSKDVILLGDLCDSCKPGDEIEVTGVYTNNFDGSLNYKQGFPVFNTLIHANHITNKDKMASDQLTDEDIKAIRELSQDPNISQRVFSSIAPSIYGHDDVKRAIALALFRGEAKNPGAKHRLRGDINVLLCGDPGTAKSQFLRYAAHIAPRSVLTTGQGASAVGLTAYVQRHPVTREWTLEAGAMVLADKGVCLIDEFDKMSDQDRTSIHEAMEQQSISISKAGIVTSLHARCTVIAASNPIGGRYNPTRTFAENVDLTEPILSRFDVLCVIRDSVDSVEDERLAKFVVGNHRTHHPDAKKIVKEGDELEEDQMDERTGVRLIPQDLLRKYIIYAREKCHPTLPEQHSEKFSNIFAQMRKESMATGSVAITVRHVESMIRLSEAHAKLHLRSYVNDEDCAAAIRVMLESFVNTQKASIMRMMKKTFSRHLTENRSANELLLFILKQLIRQQMHYATARAAAGTILQSVTIPESEFIEKAQQLRIENVKPFYTSEIFASNNFLYDPSKKTIVQEIF
